Source: publication PMC3748026
Results are given in words; binding and its absence hold for the method and conditions named. Some results given as binding are weak or reduced against the parent protein; the word gives no strength. Where a sequence is shown, tags or fusion partners need not be part of it. One block for each binder: values may come before it.

Amino acid sequences for entries named in this document (tags omitted). A change or cut given only in a name is not applied to a line headed by its entry.
UniProt P97310: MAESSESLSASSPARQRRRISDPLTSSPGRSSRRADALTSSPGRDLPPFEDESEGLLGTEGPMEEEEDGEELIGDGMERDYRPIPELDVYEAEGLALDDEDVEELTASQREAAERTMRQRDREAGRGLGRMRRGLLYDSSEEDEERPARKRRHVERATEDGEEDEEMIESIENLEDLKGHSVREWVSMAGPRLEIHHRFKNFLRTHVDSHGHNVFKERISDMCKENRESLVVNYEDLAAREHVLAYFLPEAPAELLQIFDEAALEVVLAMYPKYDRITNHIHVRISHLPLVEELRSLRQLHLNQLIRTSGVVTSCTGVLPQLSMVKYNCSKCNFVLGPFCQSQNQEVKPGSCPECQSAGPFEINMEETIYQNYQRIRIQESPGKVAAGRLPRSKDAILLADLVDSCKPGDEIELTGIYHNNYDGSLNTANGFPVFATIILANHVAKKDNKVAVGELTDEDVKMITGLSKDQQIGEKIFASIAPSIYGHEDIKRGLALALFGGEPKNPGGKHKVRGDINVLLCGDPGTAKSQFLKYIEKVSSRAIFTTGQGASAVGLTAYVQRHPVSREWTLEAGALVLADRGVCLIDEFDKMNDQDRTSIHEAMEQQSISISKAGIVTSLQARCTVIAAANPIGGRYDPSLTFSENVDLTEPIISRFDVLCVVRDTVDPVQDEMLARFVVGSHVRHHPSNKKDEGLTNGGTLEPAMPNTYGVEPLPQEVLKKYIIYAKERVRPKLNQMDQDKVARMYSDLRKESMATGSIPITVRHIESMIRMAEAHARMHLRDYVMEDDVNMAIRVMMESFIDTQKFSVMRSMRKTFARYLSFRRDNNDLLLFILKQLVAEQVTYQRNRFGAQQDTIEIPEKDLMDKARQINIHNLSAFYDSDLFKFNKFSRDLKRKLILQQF
UniProt Q61881: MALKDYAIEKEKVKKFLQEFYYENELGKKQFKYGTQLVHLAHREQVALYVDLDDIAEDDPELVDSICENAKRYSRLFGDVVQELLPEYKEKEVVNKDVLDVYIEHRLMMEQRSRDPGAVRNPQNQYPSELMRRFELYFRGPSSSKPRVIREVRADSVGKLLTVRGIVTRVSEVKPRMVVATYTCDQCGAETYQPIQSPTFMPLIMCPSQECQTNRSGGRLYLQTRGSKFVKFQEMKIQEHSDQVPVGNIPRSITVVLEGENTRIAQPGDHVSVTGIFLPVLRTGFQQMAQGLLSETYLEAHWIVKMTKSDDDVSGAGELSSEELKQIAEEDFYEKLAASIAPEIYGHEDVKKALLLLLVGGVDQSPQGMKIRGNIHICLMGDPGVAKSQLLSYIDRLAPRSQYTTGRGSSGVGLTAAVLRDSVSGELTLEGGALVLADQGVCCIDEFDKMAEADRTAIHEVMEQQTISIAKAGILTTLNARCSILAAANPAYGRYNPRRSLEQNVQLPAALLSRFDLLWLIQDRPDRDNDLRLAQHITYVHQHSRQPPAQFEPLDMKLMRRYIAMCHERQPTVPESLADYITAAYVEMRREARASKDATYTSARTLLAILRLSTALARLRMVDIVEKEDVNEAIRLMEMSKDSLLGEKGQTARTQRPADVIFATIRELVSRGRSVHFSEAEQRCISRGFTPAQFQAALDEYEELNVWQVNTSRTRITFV

What was measured:
[1] = target: T1, mouse Mcm2∼7 complex (Mcm2/3/4/5/6/7), Flag tag on Mcm5 (mouse) (UniProt P97310+P25206+P49717+P49718+P97311+Q61881); test: co-IP; purified Mcm2∼7 (Flag tag on Mcm5) held on anti-Flag M2 antibody agarose beads, mixed with purified primase, His-p48 or GINS, with or without an oligonucleotide, GINS or DNase I; 50 mM Tris-HCl pH 7.5, 100 mM sodium acetate, 5 mM magnesium acetate, 1 mM ATP, 10% glycerol, 0.01% Triton X-100; 2 h at 4°C; eluted with 0.1 M glycine pH 2.8 or boiled; silver or SYPRO staining and Western blotting; both purified
[2] = target: T1, mouse Mcm2∼7 complex (Mcm2/3/4/5/6/7), Flag tag on Mcm5 (mouse); test: co-sedimentation; Mcm2∼7 and human primase, 15-35% glycerol gradient with 1 mM ATP; data not shown; both purified
[3] = target: T1, mouse Mcm2∼7 complex (Mcm2/3/4/5/6/7), Flag tag on Mcm5 (mouse); test: native gel or EMSA; proteins alone or mixed, 25 mM Tris-HCl pH 7.5, 5 mM magnesium acetate, 20 mM 2-mercaptoethanol, 0.01% Triton X-100, 1 mM ATP, 30°C 15 min; 5% native PAGE at 4°C, silver staining; no DNA; both purified
[4] = target: T2, mouse Mcm5-His6-Flag (mouse) (UniProt P49718); test: co-purification; six mouse Mcm subunits co-expressed in insect cells; nickel-agarose, anti-Flag M2 antibody agarose (Flag on Mcm5), glycerol gradient sedimentation
T2 sequence: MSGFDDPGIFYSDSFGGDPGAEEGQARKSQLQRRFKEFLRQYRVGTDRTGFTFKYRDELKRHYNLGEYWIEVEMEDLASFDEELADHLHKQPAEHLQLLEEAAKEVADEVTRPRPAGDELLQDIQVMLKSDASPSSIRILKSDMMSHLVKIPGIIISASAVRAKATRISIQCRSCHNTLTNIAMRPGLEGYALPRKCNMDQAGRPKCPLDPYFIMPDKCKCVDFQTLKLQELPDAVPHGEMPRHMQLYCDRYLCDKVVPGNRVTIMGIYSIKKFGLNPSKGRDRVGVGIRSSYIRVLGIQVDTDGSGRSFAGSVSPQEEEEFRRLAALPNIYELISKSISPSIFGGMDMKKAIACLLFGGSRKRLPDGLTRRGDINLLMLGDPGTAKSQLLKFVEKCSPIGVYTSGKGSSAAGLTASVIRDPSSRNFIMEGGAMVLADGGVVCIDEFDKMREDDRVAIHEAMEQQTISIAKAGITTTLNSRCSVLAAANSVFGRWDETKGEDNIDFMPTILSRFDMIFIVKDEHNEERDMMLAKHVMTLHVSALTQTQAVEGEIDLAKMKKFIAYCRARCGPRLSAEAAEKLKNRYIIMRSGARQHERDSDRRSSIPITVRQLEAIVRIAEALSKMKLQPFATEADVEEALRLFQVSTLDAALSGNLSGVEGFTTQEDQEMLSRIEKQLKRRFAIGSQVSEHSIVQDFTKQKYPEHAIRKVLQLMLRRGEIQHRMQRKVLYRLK

- binding [1]: binds
- binding [2]: binds
- binding [3]: binds weakly
B1: human DNA primase p48/p58 hetero-dimeric complex (His-tagged p58, non-tagged p48) (complex, UniProt P49642 1-420; P49643 1-509)
chain 1: METFDPTELPELLKLYYRRLFPYSQYYRWLNYGGVIKNYFQHREFSFTLKDDIYIRYQSFNNQSDLEKEMQKMNPYKIDIGAVYSHRPNQHNTVKLGAFQAQEKELVFDIDMTDYDDVRRCCSSADICPKCWTLMTMAIRIIDRALKEDFGFKHRLWVYSGRRGVHCWVCDESVRKLSSAVRSGIVEYLSLVKGGQDVKKKVHLSEKIHPFIRKSINIIKKYFEEYALVNQDILENKESWDKILALVPETIHDELQQSFQKSHNSLQRWEHLKKVASRYQNNIKNDKYGPWLEWEIMLQYCFPRLDINVSKGINHLLKSPFSVHPKTGRISVPIDLQKVDQFDPFTVPTISFICRELDAISTNEEEKEENEAESDVKHRTRDYKKTSLAPYVKVFEHFLENLDKSRKGELLKKSDLQKDF
chain 2: MEFSGRKWRKLRLAGDQRNASYPHCLQFYLQPPSENISLIEFENLAIDRVKLLKSVENLGVSYVKGTEQYQSKLESELRKLKFSYRENLEDEYEPRRRDHISHFILRLAYCQSEELRRWFIQQEMDLLRFRFSILPKDKIQDFLKDSQLQFEAISDEEKTLREQEIVASSPSLSGLKLGFESIYKIPFADALDLFRGRKVYLEDGFAYVPLKDIVAIILNEFRAKLSKALALTARSLPAVQSDERLQPLLNHLSHSYTGQDYSTQGNVGKISLDQIDLLSTKSFPPCMRQLHKALRENHHLRHGGRMQYGLFLKGIGLTLEQALQFWKQEFIKGKMDPDKFDKGYSYNIRHSFGKEGKRTDYTPFSCLKIILSNPPSQGDYHGCPFRHSDPELLKQKLQSYKISPGGISQILDLVKGTHYQVACQKYFEMIHNVDDCGFSLNHPNQFFCESQRILNGGKDIKKEPIQPETPQPKPSVQKTKDASSALASLNSSLEMDMEGLEDYFSEDS

- binding [4]: binds
B2: mouse His6-Mcm4 (protein, UniProt P49717 1-862)
chain: MSSPASTPSRRSSRRGRVTPTQSLRSEESRSSPNRRRRGEDSSTGELLPMPTSPGADLQSPPAQNALFSSPPQMHSLAIPLDFDVSSPLTYGTPSSRVEGTPRSGVRGTPVRQRPDLGSARKGLQVDLQSDGAAAEDIVPSEQSLGQKLVIWGTDVNVATCKENFQRFLQCFTDPLAKEEENVGIDITQPLYMQQLGEINITGEPFLNVNCEHIKSFSKNLYRQLISYPQEVIPTFDMAVNEIFFDRYPDSILEHQIQVRPFNALKTKSMRNLNPEDIDQLITISGMVIRTSQLIPEMQEAFFQCQVCAHTTRVEIDRGRIAEPCSCVHCHTTHSMALIHNRSFFSDKQMIKLQESPEDMPAGQTPHTIVLFAHNDLVDKVQPGDRVNVTGIYRAVPIRVNPRVSNVKSVYKTHIDVIHYRKTDAKRLHGLDEEAEQKLFSEKRVKLLKELSRKPDIYERLASALAPSIYEHEDIKKGILLQLFGGTRKDFSHTGRGKFRAEINILLCGDPGTSKSQLLQYVYNLVPRGQYTSGKGSSAVGLTAYVMKDPETRQLVLQTGALVLSDNGICCIDEFDKMNESTRSVLHEVMEQQTLSIAKAGIICQLNARTSVLAAANPIESQWNPKKTTIENIQLPHTLLSRFDLIFLMLDPQDEAYDRRLAHHLVSLYYQSEEQVEEEFLDMAVLKDYIAYAHSTIMPRLSEEASQALIEAYVNMRKIGSSRGMVSAYPRQLESLIRLAEAHAKVRFSNKVEAIDVEEAKRLHREALKQSATDPRTGIVDISILTTGMSATSRKRKEELAEALRKLILSKGKTPALKYQQLFEDIRGQSDTAITKDMFEEALRALADDDFLTVTGKTVRLL

- binding [4]: binds
B3: mouse Mcm3 (protein, UniProt P25206 1-812)
chain: MAGTVVLDDVELREAQRDYLDFLDDEEDQGIYQNKVRELISDNQYRLIVSVNDLRRKNEKRANRLLNNAFEELVAFQRALKDFVASIDATYAKQYEEFYIGLEGSFGSKHVSPRTLTSCFLSCVVCVEGIVTKCSLVRPKVVRSVHYCPATKKTIERRYSDLTTLVAFPSSSVYPTKDEENNPLETEYGLSVYKDHQTITIQEMPEKAPAGQLPRSVDVILDDDLVDKVKPGDRIQVVGTYRCLPGKKGCYTSGTFRTVLIACNVKQMSKDIQPAFSADDIAKIKKFSKTRSKDVFEQLARSLAPSIHGHDYVKKAILCLLLGGVERELENGSHIRGDINILLIGDPSVAKSQLLRYVLCTAPRAIPTTGRGSSGVGLTAAVTTDQETGERRLEAGAMVLADRGVVCIDEFDKMSDMDRTAIHEVMEQGRVTIAKAGIHARLNARCSVLAAANPVYGRYDQYKTPMENIGLQDSLLSRFDLLFIMLDQMDPEQDREISDHVLRMHQYRAPGEQDGDALPLGSSVDILATDDPDFTQDDQQDTRIYEKHDSLLHGTKKKKEKMVSAAFMKKYIHVAKIIKPTLTQESAAYIAEEYSRLRSQDSMSSDTARTSPVTARTLETLIRLATAHAKARMSKTVDLQDAEEAVELVQYAYFKKVLEKEKKRKKASEDESDLEDEEEKSQEDTEQKRKRRKTHAKDGESYDPYDFSEAETQMPQVHTPKTDDSQEKTDDSQETQDSQKVELSEPRLKAFKAALLEVFQEAHEQSVGMLHLTESINRNREEPFSSEEIQACLSRMQDDNQVMVSEGIVFLI

- binding [4]: binds
B4: mouse Mcm6 (protein, UniProt P97311 1-821)
chain: MDLAAAAEPGAGSQHPEVRDEVAEKCQKLFLDFLEEFQGSDGEIKYLQFAEELIRPERNTLVVSFADLEQFNQQLSTTIQEEFYRVYPYLCRALKTFVKDRKEIPFAKDFYVAFQDLPTRHKIRELTSSRIGLLTRISGQVVRTHPVHPELVSGTFLCLDCQTVIKDVEQQFKYTQPNICRNPVCANRKRFLLDTNKSRFVDFQKVRIQETQAELPRGSIPRSLEVILRAEAVESAQAGDRCDFTGALIVVPDVSKLSTPGARAETNSRVSGADGYETEGIRGLRALGVRDLSYRLVFLACHVAPTNPRFGGKELRDEEQTAESIKNQMTVKEWEKVFEMSQDKNLYHNLCTSLFPTIHGNDEVKRGVLLMLFGGVPKTTGEGTSLRGDINVCIVGDPSTAKSQFLKHVDEFSPRAVYTSGKASSAAGLTAAVVRDEESHEFVIEAGALMLADNGVCCIDEFDKMDMRDQVAIHEAMEQQTISITKAGVKATLNARTSILAAANPVSGHYDRSKSLKQNINLSAPIMSRFDLFFILVDECNEVTDYAIARRIVDLHSRIEESIDRVYSLDDIRRYLLFARQFKPKISKESEDFIVEQYKRLRQRDGSGVTKSSWRITVRQLESMIRLSESMARMHCCDEVQPKHVKEAFRLLNKSIIRVETPDVNLDQEEEIQMETDEGQGGVNGHADSPAPVNRFNGSSEDASQETVSKPSLRLGFAEYCRISNLIVLHLRKMEEEEDESALKRSELVNWYLKEIESEIDSEEELINKKTIIEKVVHRLTHYDHVLIELTQAGLKGSSEGSESYEEDPYLVVNPNYLLED
